For data set [1], the system named is formylglycine containing peptide (11) (SEQ ID NO:1). As to the kind of experiment: Comparison of conversion rates of α-, ß- and N-(2-aminoethyl)pyrrole reacted with formylglycine containing peptide (11). Particulars: acetate buffer 0.05 M, pH=5.4, 37° C., identical conditions, compared among α-.
For data set [2], the system named is mouse monoclonal antibody against TSH containing a C-terminal aldehyde tag of SEQ ID NO:3. Nature of the data set: Site-specific labeling (conjugation efficacy) of aldehyde-tagged antibody, TSK GFC300 SA-FLUO analytics. Conditions: 37° C.

SMILES strings stand for the structures.

For `NCCc1cc[nH]c1` [β-substituted pyrrole, ß-(2-aminoethyl)pyrrole, reference compound], the “conversion / reaction velocity with formylglycine containing peptide (11)” value in data set [1] is on record as “slightly faster”.

Turning to `NCCn1cccc1` [N-(2-aminoethyl)pyrrole, 2-(1H-pyrrol-1-yl)ethan-1-amine], the “conversion / reaction velocity with formylglycine containing peptide (11)” value in data set [1] is reported as “significantly faster”.

Turning to `NC(Cn1cccc1)C(=O)NCCCOCCOCCOCCCNC(=O)CCCCC1SCC2NC(=O)NC21` (stereo not shown) [Compound 5, N-Pyrrolo-alanine-PEG2-Biotin], the “conjugation of aldehyde-tagged antibody” value in data set [2] (3-fold excess of label, within 48 h) is reported as “conjugated quantitatively”; in data set [2] (5-fold excess of label, within 24 h), “conjugated quantitatively”.

Source of the values: US11236386B2, “Method for labeling of aldehyde containing target molecules” (Roche Diagnostics Operations, Inc., priority 2017, dated 2022).
